# The supplement of paper PMC8728848
# The other results are listed elsewhere or left out.
# Columns and labels:
# Test in all cases: glycan array binding signal (z-score within array); higher = stronger binding
# Settings in all cases: glycan notation: IUPAC condensed, linker removed
# [1] = biological target: Neu5Ac(a2-3)Gal(b1-4)GlcNAc(b1-6)GalNAc
# Procedure, shortened: (§1)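 Glycan array data came from 3228 arrays in the Consortium for Functional Glycomics database, and only arrays with an available protein sequence were kept. Glycan names were put into IUPAC-condensed notation, and columns mapping to the same glycan were averaged. The binding signal is a within-array Z-score, averaged across arrays of one protein sequence run at different concentrations or buffers and across linkers. A negative Z-score can be read as non-binding.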
# [2] = biological target: Neu5Ac(a2-3)Gal(b1-4)GlcNAc(b1-6)[Gal(b1-3)]GalNAc
# Procedure, shortened: as §1
# [3] = biological target: Neu5Ac(a2-3)Gal(b1-4)GlcNAc(b1-6)[Neu5Ac(a2-3)Gal(b1-3)]GalNAc
# Procedure, shortened: as §1
# [4] = biological target: Neu5Ac(a2-3)Gal(b1-4)GlcNAc6S
# Procedure, shortened: as §1
# [5] = biological target: Neu5Ac(a2-3)Gal(b1-4)[Fuc(a1-3)]GlcNAc
# Procedure, shortened: as §1
# [6] = biological target: Neu5Ac(a2-3)Gal(b1-4)[Fuc(a1-3)]GlcNAc(b1-2)Man
# Procedure, shortened: as §1
# [7] = biological target: Neu5Ac(a2-3)Gal(b1-4)[Fuc(a1-3)]GlcNAc(b1-3)Gal
# Procedure, shortened: as §1
# [8] = biological target: Neu5Ac(a2-3)Gal(b1-4)[Fuc(a1-3)]GlcNAc(b1-3)Gal(b1-4)GlcNAc
# Procedure, shortened: as §1
# [9] = biological target: Neu5Ac(a2-3)Gal(b1-4)[Fuc(a1-3)]GlcNAc(b1-3)Gal(b1-4)[Fuc(a1-3)]GlcNAc(b1-3)Gal(b1-4)[Fuc(a1-3)]GlcNAc
# Procedure, shortened: as §1
# [10] = biological target: Neu5Ac(a2-3)Gal(b1-4)[Fuc(a1-3)]GlcNAc(b1-3)GalNAc
# Procedure, shortened: as §1
# [11] = biological target: Neu5Ac(a2-3)Gal(b1-4)[Fuc(a1-3)]GlcNAc(b1-6)[Gal(b1-3)]GalNAc
# Procedure, shortened: as §1
# [12] = biological target: Neu5Ac(a2-3)Gal(b1-4)[Fuc(a1-3)]GlcNAc(b1-6)[Neu5Ac(a2-3)Gal(b1-3)]GalNAc
# Procedure, shortened: as §1
# [13] = biological target: Neu5Ac(a2-3)Gal(b1-4)[Fuc(a1-3)]GlcNAc6S
# Procedure, shortened: as §1
# [14] = biological target: Neu5Ac(a2-3)Gal6S(b1-4)GlcNAc
# Procedure, shortened: as §1
# [15] = biological target: Neu5Ac(a2-3)Gal6S(b1-4)[Fuc(a1-3)]GlcNAc
# Procedure, shortened: as §1
# Neu5Ac(a2-3)GalNAc = biological target: Neu5Ac(a2-3)GalNAc
# Procedure, shortened: as §1
# [16] = biological target: Neu5Ac(a2-3)GalNAc(b1-4)GlcNAc
# Procedure, shortened: as §1
# [17] = biological target: Neu5Ac(a2-3)[GalNAc(b1-4)]Gal(b1-4)Glc
# Procedure, shortened: as §1
# [18] = biological target: Neu5Ac(a2-3)[GalNAc(b1-4)]Gal(b1-4)GlcNAc
# Procedure, shortened: as §1
# [19] = biological target: Neu5Ac(a2-3)[GalNAc(b1-4)]Gal(b1-4)GlcNAc(b1-3)GalNAc
# Procedure, shortened: as §1
# [20] = biological target: Neu5Ac(a2-3)[Neu5Ac(a2-6)]GalNAc
# Procedure, shortened: as §1
# Neu5Ac(a2-6)Gal = biological target: Neu5Ac(a2-6)Gal
# Procedure, shortened: as §1
# [21] = biological target: Neu5Ac(a2-6)Gal(b1-3)GlcNAc(b1-3)[Gal(b1-4)GlcNAc(b1-6)]Gal(b1-4)Glc
# Procedure, shortened: as §1
# Neu5Ac(a2-6)Gal(b1-4)Glc = biological target: Neu5Ac(a2-6)Gal(b1-4)Glc
# Procedure, shortened: as §1
# [22] = biological target: Neu5Ac(a2-6)Gal(b1-4)GlcNAc
# Procedure, shortened: as §1
# [23] = biological target: Neu5Ac(a2-6)Gal(b1-4)GlcNAc(b1-2)Man
# Procedure, shortened: as §1
# [24] = biological target: Neu5Ac(a2-6)Gal(b1-4)GlcNAc(b1-2)Man(a1-3)Man(b1-4)GlcNAc(b1-4)GlcNAc
# Procedure, shortened: as §1
# [25] = biological target: Neu5Ac(a2-6)Gal(b1-4)GlcNAc(b1-2)Man(a1-3)[Gal(b1-4)GlcNAc(b1-2)Man(a1-6)]Man(b1-4)GlcNAc(b1-4)GlcNAc
# Procedure, shortened: as §1
# [26] = biological target: Neu5Ac(a2-6)Gal(b1-4)GlcNAc(b1-2)Man(a1-3)[GlcNAc(b1-2)Man(a1-6)]Man(b1-4)GlcNAc(b1-4)GlcNAc
# Procedure, shortened: as §1
# [27] = biological target: Neu5Ac(a2-6)Gal(b1-4)GlcNAc(b1-2)Man(a1-3)[GlcNAc(b1-4)][Neu5Ac(a2-6)Gal(b1-4)GlcNAc(b1-2)Man(a1-6)]Man(b1-4)GlcNAc(b1-4)GlcNAc
# Procedure, shortened: as §1
binder,measurement,setting,value
TAL6-6LysM (Trichoderma atroviride) (protein) AASKLGVPQPAQRDQVNCQLYAVQPNDNCIDISSKNNITYAQLLSWNPSLSSTCSNLASLNSSSICVSNPKGTFSISSNTVGATDIATTTAPVPSPTLDQTTSRCAKYYQVSDGDDCSHLTAQFAITLKDFIFLNSEVWQNCTNLELGYYYCVEPVGYISTYPGYLPTATTKPFNQTSATSLPYDGDPWARFSSNSSVIPIANGTRVDCYSYVYVKNLTENLFADCWNMASMYEITREELVLWNPSLGNDGSSGSNLSGAEASQVASSIAIPTTAPSSITTNLYTYPCTVAANISYCVALVSSTGALPTNTAPPGPHASGEISNCTAWFAPEAYDTCKSILDIFEMSFANFYKMNPSVGPDCSGLAVGTNYCVSTYPNGEDPNDDWDGDDSIPSISPTGIITPTPTQSGMVSNCNKFYDVHSNDGCSAIASSQHVDLSSLYKWNPAIKTDCSGLQASVYVCIGILTTSMSTTSKLPTTTSKPSTTSKPPTGITTPTPTQSGMVKNCNKFYDVHSGDGCSAIASSQKVNLSSFYLWNPAVKTDCSGLQASVFVCIGTLTTSMSTTTSKLPTTTSKPSTTSKPPTGIITPTPTQNGMVKNCNKFYDVHSGDGCSAIASSQKVNLSSFYLWNPAVKTDCSGLQASVFVCVGTATTTTAAGITTPTPTQSGMVSGCNKFYDVHAGDGCSAIASSQKIALSSLYKWNPAVKTDCSGLQASVYICIGVGNAAAARVTGAAASFLEQKLISEEDLNSAVDHHHHHH,glycan array binding signal (z-score),[1],0.787
same,glycan array binding signal (z-score),[2],-1.45
same,glycan array binding signal (z-score),[3],-1.14
same,glycan array binding signal (z-score),[4],-0.46
same,glycan array binding signal (z-score),[5],-0.196
same,glycan array binding signal (z-score),[6],-0.794
same,glycan array binding signal (z-score),[7],0.169
same,glycan array binding signal (z-score),[8],-0.591
same,glycan array binding signal (z-score),[9],0.058
same,glycan array binding signal (z-score),[10],-0.077
same,glycan array binding signal (z-score),[11],0.958
same,glycan array binding signal (z-score),[12],-0.367
same,glycan array binding signal (z-score),[13],0.059
same,glycan array binding signal (z-score),[14],0.428
same,glycan array binding signal (z-score),[15],-1.04
same,glycan array binding signal (z-score),Neu5Ac(a2-3)GalNAc,0.267
same,glycan array binding signal (z-score),[16],-0.545
same,glycan array binding signal (z-score),[17],-1.28
same,glycan array binding signal (z-score),[18],-1.08
same,glycan array binding signal (z-score),[19],1.67
same,glycan array binding signal (z-score),[20],0.399
same,glycan array binding signal (z-score),Neu5Ac(a2-6)Gal,-0.907
same,glycan array binding signal (z-score),[21],-0.73
same,glycan array binding signal (z-score),Neu5Ac(a2-6)Gal(b1-4)Glc,0.029
same,glycan array binding signal (z-score),[22],-0.077
same,glycan array binding signal (z-score),[23],-0.567
same,glycan array binding signal (z-score),[24],-0.142
same,glycan array binding signal (z-score),[25],0.695
same,glycan array binding signal (z-score),[26],0.742
same,glycan array binding signal (z-score),[27],0.064

# Retrieved one by one from above, 2 records:
binder,measurement,setting,value
TAL6-6LysM (Trichoderma atroviride) (protein) AASKLGVPQPAQRDQVNCQLYAVQPNDNCIDISSKNNITYAQLLSWNPSLSSTCSNLASLNSSSICVSNPKGTFSISSNTVGATDIATTTAPVPSPTLDQTTSRCAKYYQVSDGDDCSHLTAQFAITLKDFIFLNSEVWQNCTNLELGYYYCVEPVGYISTYPGYLPTATTKPFNQTSATSLPYDGDPWARFSSNSSVIPIANGTRVDCYSYVYVKNLTENLFADCWNMASMYEITREELVLWNPSLGNDGSSGSNLSGAEASQVASSIAIPTTAPSSITTNLYTYPCTVAANISYCVALVSSTGALPTNTAPPGPHASGEISNCTAWFAPEAYDTCKSILDIFEMSFANFYKMNPSVGPDCSGLAVGTNYCVSTYPNGEDPNDDWDGDDSIPSISPTGIITPTPTQSGMVSNCNKFYDVHSNDGCSAIASSQHVDLSSLYKWNPAIKTDCSGLQASVYVCIGILTTSMSTTSKLPTTTSKPSTTSKPPTGITTPTPTQSGMVKNCNKFYDVHSGDGCSAIASSQKVNLSSFYLWNPAVKTDCSGLQASVFVCIGTLTTSMSTTTSKLPTTTSKPSTTSKPPTGIITPTPTQNGMVKNCNKFYDVHSGDGCSAIASSQKVNLSSFYLWNPAVKTDCSGLQASVFVCVGTATTTTAAGITTPTPTQSGMVSGCNKFYDVHAGDGCSAIASSQKIALSSLYKWNPAVKTDCSGLQASVYICIGVGNAAAARVTGAAASFLEQKLISEEDLNSAVDHHHHHH,glycan array binding signal (z-score),[19],1.67
same,glycan array binding signal (z-score),Neu5Ac(a2-3)GalNAc,0.267
